Results are given in words; binding and its absence hold for the method and conditions named. Binding can be weak; no strength is given.
Molecular target: PRU2 in the vector pBT3-SUC (Arabidopsis thaliana) (UniProt Q6NQG7)
Test: two-hybrid; pairwise test: CK2 subunits in pPR3-N co-transformed with pBT3-SUC-PRU2 into yeast strain NMY51, SD/-Leu/-Trp/-His/-Ade medium

Chains of the proteins cited; added tags and fusions are not shown. Lines headed by an entry give the natural chain unless they say otherwise; changes in a name come on top.
UniProt Q08467: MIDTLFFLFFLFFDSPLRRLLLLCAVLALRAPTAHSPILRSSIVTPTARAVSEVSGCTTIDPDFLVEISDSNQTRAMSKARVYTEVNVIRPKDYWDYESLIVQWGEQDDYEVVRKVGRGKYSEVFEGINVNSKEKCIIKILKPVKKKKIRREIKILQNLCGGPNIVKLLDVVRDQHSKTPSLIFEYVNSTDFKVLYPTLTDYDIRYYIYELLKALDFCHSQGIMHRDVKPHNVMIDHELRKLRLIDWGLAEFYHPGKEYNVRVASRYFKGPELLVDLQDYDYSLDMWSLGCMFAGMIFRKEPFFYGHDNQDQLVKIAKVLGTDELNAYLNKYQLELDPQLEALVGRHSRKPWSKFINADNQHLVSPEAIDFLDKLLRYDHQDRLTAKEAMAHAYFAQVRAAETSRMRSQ
UniProt Q08466: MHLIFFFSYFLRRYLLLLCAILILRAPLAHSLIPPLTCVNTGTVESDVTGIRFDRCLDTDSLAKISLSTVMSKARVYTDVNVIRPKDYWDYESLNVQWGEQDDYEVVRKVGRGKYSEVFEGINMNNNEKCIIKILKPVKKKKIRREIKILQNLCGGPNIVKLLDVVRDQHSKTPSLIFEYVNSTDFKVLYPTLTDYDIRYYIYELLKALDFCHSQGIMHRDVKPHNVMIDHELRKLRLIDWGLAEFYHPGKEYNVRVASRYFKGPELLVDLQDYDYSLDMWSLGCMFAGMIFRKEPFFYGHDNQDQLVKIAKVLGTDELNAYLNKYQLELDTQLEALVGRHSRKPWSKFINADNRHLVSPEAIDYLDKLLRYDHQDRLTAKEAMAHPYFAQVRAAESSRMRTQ

Substance	binding
full-length CK2α1 in the vector pPR3-N (from UniProt Q08467)	binds
full-length CK2α2 in the vector pPR3-N (from UniProt Q08466)	binds

Reference: publication PMC8874776
